Cleaved PARP in drug-treated melanoma cells

Data from the primary screen of doi:10.1371/journal.pone.0140310, rounded.

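The test systems are human melanoma cell lines, treated with a pair of drugs for 72 h and then stained and imaged. Values are the share of nuclei positive for cleaved PARP as a percentage of the same share in the DMSO control: 100 is the control level, higher means more apoptosis. Every drug was used at one fixed concentration, the higher of two screened. No replicate spread is given; individual values may be noisy. The marker varies much from line to line, for technical or biological reasons.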 This is part of the screen, not chosen by result. An entry leaves out what has no value listed here. A dash means that no value is listed here.

Every entry is a combination with lapatinib at 4 µM: CS(=O)(=O)CCNCc1ccc(-c2ccc3ncnc(Nc4ccc(OCc5cccc(F)c5)c(Cl)c4)c3c2)o1

{"partner": "Cc1cc([N+](=O)[O-])ccc1NS(=O)(=O)c1cc(Cl)ccc1Cl at 5 µM", "MEL-HO": 173, "LOX IMVI": 151, "501mel": 65.1, "SK-MEL-28": 56.2, "C32": 131, "A2058": 219}
{"partner": "C[As](C)SC[C@H](NC(=O)CC[C@H](N)C(=O)O)C(=O)NCC(=O)O at 2 µM", "MEL-HO": 50.9, "LOX IMVI": 56.0, "SK-MEL-28": 126, "C32": 671, "A2058": 195}
{"partner": "NC(=O)Nc1cc(-c2cccc(F)c2)sc1C(=O)N[C@H]1CCCNC1 at 0.1 µM", "MEL-HO": 62.5, "LOX IMVI": 147, "SK-MEL-28": 192, "C32": 334, "A2058": 257}
{"partner": "Cc1ccc(Nc2nccc(N(C)c3ccc4c(C)n(C)nc4c3)n2)cc1S(N)(=O)=O at 2 µM", "MEL-HO": 57.1, "LOX IMVI": 120, "SK-MEL-28": 231, "C32": 440, "A2058": 158}
{"partner": "Oc1cc(-c2nc(-c3ccccc3)[nH]c2-c2ccncc2)ccc1Cl at 1 µM", "MEL-HO": 53.3, "LOX IMVI": 162, "501mel": 277, "SK-MEL-28": 177, "C32": 211, "A2058": 137}
{"partner": "O=C(Nc1cccc(Cl)c1)Nc1ncc(CCNc2ncnc3ccsc23)s1 at 0.004 µM", "MEL-HO": 206, "LOX IMVI": 133, "SK-MEL-28": 88.9, "C32": 226, "A2058": 382}
{"partner": "Cn1cc(C2=C(c3cn(C4CCN(Cc5ccccn5)CC4)c4ccccc34)C(=O)NC2=O)c2ccccc21 at 4 µM", "MEL-HO": 104, "LOX IMVI": 51.2, "SK-MEL-28": 1470, "C32": 264, "A2058": 238}
{"partner": "NC(=O)c1ccc(N(C(N)=O)c2c(F)cccc2F)nc1-c1ccc(F)cc1F at 2 µM", "MEL-HO": 94.2, "LOX IMVI": 122, "SK-MEL-28": 43.8, "C32": 280, "A2058": 160}
{"partner": "CCCS(=O)(=O)Nc1ccc(F)c(C(=O)c2c[nH]c3ncc(Cl)cc23)c1F at 0.4 µM", "MEL-HO": 57.3, "LOX IMVI": 97.5, "SK-MEL-28": 37.0, "C32": 52.5, "A2058": 160}
{"partner": "Cn1c(=O)n(-c2ccc(C(C)(C)C#N)cc2)c2c3cc(-c4cnc5ccccc5c4)ccc3ncc21 at 0.02 µM", "MEL-HO": 59.0, "LOX IMVI": 164, "SK-MEL-28": 111, "C32": 771, "A2058": 345}
{"partner": "COc1cc2c(Oc3ccc4[nH]c(C)cc4c3F)ncnc2cc1OCCCN1CCCC1 at 2 µM", "MEL-HO": 93.0, "LOX IMVI": 165, "SK-MEL-28": 46.5, "C32": 565, "A2058": 84.9}
{"partner": "C[C@]1(O)C[C@@H](c2nc(-c3ccc4ccc(-c5ccccc5)nc4c3)c3c(N)nccn32)C1 at 2 µM", "MEL-HO": 101, "LOX IMVI": 132, "SK-MEL-28": 33.5, "C32": 566, "A2058": 127}
{"partner": "CNC(=O)c1cc(Oc2ccc(NC(=O)Nc3ccc(Cl)c(C(F)(F)F)c3)cc2)ccn1 at 2 µM", "MEL-HO": 167, "LOX IMVI": 124, "SK-MEL-28": 213, "C32": 258, "A2058": 113}
{"partner": "COC(=O)c1sccc1S(=O)(=O)Nc1ccc(Nc2ccccc2)cc1OC at 5 µM", "MEL-HO": 190, "LOX IMVI": 84.4, "501mel": 79.3, "SK-MEL-28": 61.2, "C32": 97.1, "A2058": 161}
{"partner": "CCc1ccc(CCOc2ccc(CC3SC(=O)NC3=O)cc2)nc1 (stereo unspecified) at 10 µM", "MEL-HO": 204, "LOX IMVI": 102, "501mel": 123, "SK-MEL-28": 58.6, "C32": 77.7, "A2058": 158}
{"partner": "CC(C)C[C@H](NC(=O)[C@H](Cc1ccccc1)NC(=O)c1cnccn1)B(O)O at 0.005 µM", "MEL-HO": 113, "LOX IMVI": 83.7, "SK-MEL-28": 175, "C32": 741, "A2058": 1350}
{"partner": "COc1ccc(C2=N[C@@H](c3ccc(Cl)cc3)[C@@H](c3ccc(Cl)cc3)N2C(=O)N2CCNC(=O)C2)c(OC(C)C)c1 at 0.5 µM", "MEL-HO": 81.1, "LOX IMVI": 102, "SK-MEL-28": 86.8, "C32": 142, "A2058": 91.3}
{"partner": "O=C(O)C(=O)Nc1sc2c(c1C(=O)O)CCNC2 at 8.33 µM", "MEL-HO": 108, "LOX IMVI": 106, "501mel": 177, "SK-MEL-28": 155, "C32": 68.9, "A2058": 49.1}
{"partner": "Cn1cc(/C=C2\\C(=O)Nc3cccnc32)c2ccccc21 at 2 µM", "MEL-HO": 333, "LOX IMVI": 102, "501mel": 52.6, "SK-MEL-28": 28.5, "C32": 94.4, "A2058": 203}
{"partner": "CS(=O)(=O)c1ccc(C(=O)Nc2ccc(Cl)c(-c3ccccn3)c2)c(Cl)c1 at 5 µM", "MEL-HO": 170, "LOX IMVI": 120, "SK-MEL-28": 112, "C32": 138, "A2058": 108}
{"partner": "C[C@@H](Oc1cc(-c2cnn(C3CCNCC3)c2)cnc1N)c1c(Cl)ccc(F)c1Cl at 1 µM", "MEL-HO": 145, "LOX IMVI": 221, "SK-MEL-28": 97.3, "C32": 292, "A2058": 217}
{"partner": "CN(c1ncccc1CNc1nc(Nc2ccc3c(c2)CC(=O)N3)ncc1C(F)(F)F)S(C)(=O)=O at 0.4 µM", "MEL-HO": 136, "LOX IMVI": 821, "SK-MEL-28": 260, "C32": 166, "A2058": 228}
{"partner": "CCCCCCCCCCCCCCCCCCOP(=O)([O-])OC1CC[N+](C)(C)CC1 at 2 µM", "MEL-HO": 202, "LOX IMVI": 34.6, "SK-MEL-28": 62.3, "C32": 152, "A2058": 146}

The last 3 entries again:

| Partner | MEL-HO | LOX IMVI | 501mel | SK-MEL-28 | C32 | A2058 |
|---|---|---|---|---|---|---|
| C[C@@H](Oc1cc(-c2cnn(C3CCNCC3)c2)cnc1N)c1c(Cl)ccc(F)c1Cl at 1 µM | 145 | 221 | - | 97.3 | 292 | 217 |
| CN(c1ncccc1CNc1nc(Nc2ccc3c(c2)CC(=O)N3)ncc1C(F)(F)F)S(C)(=O)=O at 0.4 µM | 136 | 821 | - | 260 | 166 | 228 |
| CCCCCCCCCCCCCCCCCCOP(=O)([O-])OC1CC[N+](C)(C)CC1 at 2 µM | 202 | 34.6 | - | 62.3 | 152 | 146 |